Measurements taken from paper PMC3477315.
These are yes or no findings as the source states them, for the method shown. Binding seen in cells or lysates may run through a third protein. Some binding calls cover weakened binding; strength is not graded here.

Target: T1, 35S-labeled IVT wild-type procaspase-8, Q14790
T1 chain: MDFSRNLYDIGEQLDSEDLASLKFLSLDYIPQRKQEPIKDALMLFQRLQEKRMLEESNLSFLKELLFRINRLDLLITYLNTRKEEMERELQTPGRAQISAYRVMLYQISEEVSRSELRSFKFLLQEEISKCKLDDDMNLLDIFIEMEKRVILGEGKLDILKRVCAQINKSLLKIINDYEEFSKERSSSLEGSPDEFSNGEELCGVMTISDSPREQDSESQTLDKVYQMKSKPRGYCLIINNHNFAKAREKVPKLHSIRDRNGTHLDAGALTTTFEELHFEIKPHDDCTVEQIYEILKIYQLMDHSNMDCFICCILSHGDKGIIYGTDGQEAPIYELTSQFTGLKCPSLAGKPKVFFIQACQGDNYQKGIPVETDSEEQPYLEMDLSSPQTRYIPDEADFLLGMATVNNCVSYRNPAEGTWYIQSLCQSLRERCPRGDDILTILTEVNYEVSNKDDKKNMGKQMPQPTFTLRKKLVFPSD
Test: pull-down; in vitro DISC reconstitution as above; procaspase-8 with itself (DED chain), inferred from the amount of IVT 35S-procaspase-8 recruited to the bead-bound complex
Settings: remark: other sources report otherwise

- binding: binds
B1: 35S-labeled IVT wild-type procaspase-8, Q14790 1-479 (enzyme)
chain: MDFSRNLYDIGEQLDSEDLASLKFLSLDYIPQRKQEPIKDALMLFQRLQEKRMLEESNLSFLKELLFRINRLDLLITYLNTRKEEMERELQTPGRAQISAYRVMLYQISEEVSRSELRSFKFLLQEEISKCKLDDDMNLLDIFIEMEKRVILGEGKLDILKRVCAQINKSLLKIINDYEEFSKERSSSLEGSPDEFSNGEELCGVMTISDSPREQDSESQTLDKVYQMKSKPRGYCLIINNHNFAKAREKVPKLHSIRDRNGTHLDAGALTTTFEELHFEIKPHDDCTVEQIYEILKIYQLMDHSNMDCFICCILSHGDKGIIYGTDGQEAPIYELTSQFTGLKCPSLAGKPKVFFIQACQGDNYQKGIPVETDSEEQPYLEMDLSSPQTRYIPDEADFLLGMATVNNCVSYRNPAEGTWYIQSLCQSLRERCPRGDDILTILTEVNYEVSNKDDKKNMGKQMPQPTFTLRKKLVFPSD
modifications: here or on the partner: 35S-labeled; 35S-labeled
